PubChem BioAssay AID1224830, NIAID – 2016
Test: 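Host factors that control LPS-induced TNF expression in human macrophages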 (primary screen). System: human THP-1 monocytic leukaemia cells, TNF dual-luciferase reporter clone, PMA-differentiated to macrophage-like cells. Reagent: siRNA pool against human genes, 50 nM. Time to read-out: LPS for 4 h, given about 3 days after siRNA transfection. Challenge: bacterial LPS (TLR4 ligand), 10 ng/ml. Read-out: 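TNF firefly reporter luminescence divided by renilla, normalised to the plate median, then turned into a robust z-score for each replicate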. Scale: TNF reporter robust z-score: higher = stronger TNF reporter response to LPS. Active means: 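Each well counts as active if its z-score is over 2.8 or under -1.5; controls are left without a call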.
Shown is one part, drawn at random, of about 18,000 deposited reagents. About 2,900 of them (16%) count as active. 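Calls are made per well; low scores hint the gene aids the LPS response, high scores that it dampens it.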 Repeated entries: four replicate wells of each siRNA pool.

UQCRQ (ubiquinol-cytochrome c reductase complex III subunit VII)
- TNF reporter robust z-score: -0.3
- Outcome: inactive

UQCRQ (ubiquinol-cytochrome c reductase complex III subunit VII)
- TNF reporter robust z-score: 0.13
- Outcome: inactive

UQCRQ (ubiquinol-cytochrome c reductase complex III subunit VII)
- TNF reporter robust z-score: 0.37
- Outcome: inactive

UQCRQ (ubiquinol-cytochrome c reductase complex III subunit VII)
- TNF reporter robust z-score: 0.31
- Outcome: inactive

CLEC1B (C-type lectin domain family 1 member B)
- Outcome: inactive

CLEC1B (C-type lectin domain family 1 member B)
- TNF reporter robust z-score: -0.22
- Outcome: inactive

CLEC1B (C-type lectin domain family 1 member B)
- TNF reporter robust z-score: 0.83
- Outcome: inactive

CLEC1B (C-type lectin domain family 1 member B)
- TNF reporter robust z-score: 0.3
- Outcome: inactive

CLEC1B (C-type lectin domain family 1 member B)
- TNF reporter robust z-score: 0.57
- Outcome: inactive

TMEM204 (transmembrane protein 204)
- TNF reporter robust z-score: 1.38
- Outcome: inactive

TMEM204 (transmembrane protein 204)
- TNF reporter robust z-score: 1.15
- Outcome: inactive

TMEM204 (transmembrane protein 204)
- TNF reporter robust z-score: 1.74
- Outcome: inactive

TMEM204 (transmembrane protein 204)
- TNF reporter robust z-score: 1.21
- Outcome: inactive

LRRC45 (leucine rich repeat containing 45)
- TNF reporter robust z-score: -0.26
- Outcome: inactive

LRRC45 (leucine rich repeat containing 45)
- TNF reporter robust z-score: 0.66
- Outcome: inactive

LRRC45 (leucine rich repeat containing 45)
- TNF reporter robust z-score: 0.18
- Outcome: inactive

LRRC45 (leucine rich repeat containing 45)
- TNF reporter robust z-score: 0.71
- Outcome: inactive

VPS33A (VPS33A core subunit of CORVET and HOPS complexes)
- TNF reporter robust z-score: -1.16
- Outcome: inactive

VPS33A (VPS33A core subunit of CORVET and HOPS complexes)
- TNF reporter robust z-score: 0.25
- Outcome: inactive

VPS33A (VPS33A core subunit of CORVET and HOPS complexes)
- TNF reporter robust z-score: -1.72
- Outcome: active

VPS33A (VPS33A core subunit of CORVET and HOPS complexes)
- TNF reporter robust z-score: -0.48
- Outcome: inactive

Hits, of those listed so far:
VPS33A (VPS33A core subunit of CORVET and HOPS complexes)
- TNF reporter robust z-score: -1.72
- Outcome: active
